The shares of active, inactive and inconclusive entries below differ from those in the screen. Potencies beside an inconclusive call are fits to weak or partial responses and may not hold up. Activity calls are given as the source filed them. Calls come from the whole dose curve; as a rule, active = well fitted cell-killing curve with a large enough effect; inconclusive = small, poorly fitted or top-dose-only effect, or effect the other way; inactive = no such curve, though single readings can be large or run the other way.
Assay: Quantitative High-Throughput drug screen in 47 multiple myeloma cell lines against the NCATS MIPE library collection: OPM1_PLB cell viability assay (AID 1918989); note: nearly all actives have a fitted effect of over 40% in size
Conditions: CellTiter-Glo, 48 h; series mostly up to 45.8 µM
Method in brief: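 Viability after 48 h drug exposure was measured as ATP-dependent luminescence. Cells, 500 per well, sat at 37 °C under 5% CO2; DMSO wells set 100%, media-only wells 0%.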
Potency is the fitted concentration of half-maximal effect.

| Structure (SMILES) | Potency |
| --- | --- |
| Nc1cccc(S(=O)(=O)N2CCCN(S(=O)(=O)c3ccc4c(c3)OCCO4)CC2)c1 | inactive |
| CCn1c(-c2nonc2N)nc2c(C#CC(C)(C)O)ncc(OC[C@H]3CCCNC3)c21 | active: 0.148 µM |
| N#CC(=C(N)Sc1ccc(N)cc1)c1ccccc1C(F)(F)F | inconclusive: 20.9 µM [cytotoxic, partial curve, poor fit] |
| CCn1c(=O)c2c(nc(C=Cc3ccc(OC)c(OC)c3)n2C)n(CC)c1=O | inconclusive: 20.9 µM [cytotoxic, partial curve, poor fit] |
| CCNC(=O)Nc1ccc(Oc2ncnc(N)c2C=NOC)cc1Cl | inactive |
| CC(C)(O)CCc1ccc(OCc2cc(-c3cccc(OC(F)F)c3)c3ncccc3c2)cc1 | inactive |
| Cc1ccc2c(=O)c3cccc(CC(=O)O)c3oc2c1C | inconclusive: 0.059 µM [cytotoxic, full curve, poor fit] |
| CN(C)CCN(Cc1ccc(Cl)cc1)c1ccccn1 | inconclusive: 29.6 µM [cytotoxic, single point] |
| COc1ccc2[nH]cc(CCNC(C)=O)c2c1 | inconclusive: 6.62 µM [cytotoxic, partial curve, poor fit] |
| CN1c2ccccc2C(=O)N2CCc3c([nH]c4ccccc34)C21 (stereo unspecified) | inconclusive: 29.6 µM [cytotoxic, single point] |
| CC(=O)N1CCN(c2ccc(OC[C@H]3CO[C@](Cn4ccnc4)(c4ccc(Cl)cc4Cl)O3)cc2)CC1 | active: 16.6 µM |
| CCN(C)C(=O)Oc1cccc([C@H](C)N(C)C)c1 | inactive |
| N#CC(=C(O)c1ccc(Cl)cc1Cl)c1nc2cc(Cl)ccc2c(=O)[nH]1 | inactive |
| CCCCOCCOc1nc(-c2ccc(C(=O)O)c(F)c2)sc1C | inconclusive: 0.0209 µM [rising, full curve, poor fit] |
| CN1CCC[C@H]1CCO[C@](C)(c1ccccc1)c1ccc(Cl)cc1 | active: 26.4 µM |
| C=CCn1c(=O)c2cnc(Nc3ccc(N4CCN(C)CC4)cc3)nc2n1-c1cccc(C(C)(C)O)n1 | active: 0.59 µM |
| CC(NCCc1ccc(O)cc1)C(O)c1ccc(O)cc1 (stereo unspecified) | inactive |
| N[C@@H](Cc1ccc(O)c(O)c1)C(=O)O | inconclusive: 0.0023 µM [rising, full curve, poor fit] |
| CON=C(C(=O)N[C@@H]1C(=O)N2C(C(=O)O)=C(Cn3ccc(=N)n3CCO)CS[C@H]12)c1csc(N)n1 | inconclusive: 0.0021 µM [rising, full curve, poor fit] |
| O=C(O)CCc1ccc(NCc2cccc(Oc3ccccc3)c2)cc1 | inconclusive: 0.0042 µM [rising, full curve, poor fit] |
| Cn1cc(-c2ccncc2)c(-c2ccc(OCc3ccc4ccccc4n3)cc2)n1 | active: 10.5 µM |

Single entries from the entries so far.
Under Potency, O=C(O)CCc1ccc(NCc2cccc(Oc3ccccc3)c2)cc1 shows inconclusive: 0.0042 µM [rising, full curve, poor fit]
Under Potency, CC(NCCc1ccc(O)cc1)C(O)c1ccc(O)cc1 (stereo unspecified) shows inactive

Reference: PubChem BioAssay (NCATS)
